In PubChem BioAssay AID488837 (National Center for Advancing Translational Sciences (NCATS), 2010):
Among all 330,000 compounds or so, about 20 (0.006%) were called active. Inconclusive means that the source gave no clear call. Such entries were picked first, then a sample of the others. Calls come from the whole dose curve; as a rule, active = well fitted inhibition curve with a large enough effect; inconclusive = small, poorly fitted or top-dose-only effect, or effect the other way; inactive = flat fitted curve, though single readings scatter. Potencies beside an inconclusive call are fits to weak or partial responses and may not hold up.

By UniProt entry, the sequences of proteins in these tests, tags left out.
UniProt O00167, whole entry, looked up: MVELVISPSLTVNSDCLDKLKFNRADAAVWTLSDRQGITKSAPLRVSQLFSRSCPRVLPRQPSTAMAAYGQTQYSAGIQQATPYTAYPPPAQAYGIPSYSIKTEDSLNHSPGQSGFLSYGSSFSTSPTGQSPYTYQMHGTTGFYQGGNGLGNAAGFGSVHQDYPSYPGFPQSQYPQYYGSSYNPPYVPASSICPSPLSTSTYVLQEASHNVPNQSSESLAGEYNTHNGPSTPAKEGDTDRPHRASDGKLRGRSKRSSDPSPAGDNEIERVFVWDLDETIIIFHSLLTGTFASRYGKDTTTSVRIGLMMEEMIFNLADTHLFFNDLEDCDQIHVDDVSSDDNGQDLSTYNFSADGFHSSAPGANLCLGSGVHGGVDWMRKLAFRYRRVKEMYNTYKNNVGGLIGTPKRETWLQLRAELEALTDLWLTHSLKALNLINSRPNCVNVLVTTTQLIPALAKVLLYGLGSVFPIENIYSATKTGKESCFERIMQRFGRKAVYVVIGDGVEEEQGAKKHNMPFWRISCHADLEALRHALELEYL

These compounds were tested against Protein phosphatase EYA2 (Homo sapiens) (UniProt O00167) (assay: qHTS Assay for Inhibitors of the Phosphatase Activity of Eya2). Conditions: recombinant Eya2, OMFP fluorescence dephosphorylation (OMFP is methylfluorescein phosphate); activity, negative = inhibition: at 76.9 µM (top of the series) unless noted.
In short: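 Eya2 protein (added as 0.2 uM solution) was preincubated with compound for 10 min at ambient temperature in 50 mM HEPES pH 7.5, 50 mM NaCl, 5 uM MgCl2, 0.05% BSA, 1 mM DTT. OMFP (added at 50 uM) then reacted 10 min; fluorescence read at 485/525 nm.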
% is set by controls: 0 for no effect and ±100 for the full control effect; potency is the fitted concentration of half-maximal effect.

| Compound | Potency | activity, negative = inhibition |
| --- | --- | --- |
| COc1ccc2c(c1)c(C(=O)N/N=C/c1cn(C)c3ccccc13)c(C)n2C | inconclusive: 112 µM [inhibitor, single point] | – |
| Cn1nnc2cc(C(=O)Nc3ccccc3F)ccc21 | inconclusive: 15.8 µM [inhibitor, single point] | – |
| Cc1noc(C)c1C(=O)NNc1cc(Cl)ccc1Cl | inconclusive: 100 µM [inhibitor, single point] | – |
| Cc1[nH]c2ccc(C(=O)OC(C)C(=O)N(C)C3CCCCC3)cc2c1C (configuration not stated) | inconclusive: 79.4 µM [inhibitor, partial curve] | – |
| CC1CCCN(CCCNC(=O)c2ccc3c(c2)N(Cc2ccc(F)cc2)C(=O)c2ccccc2S3=O)C1 (configuration not stated) | inconclusive: 178 µM [inhibitor, single point] | – |
| CN1C(=O)c2cccc3c(N)ccc(c23)C1=O | inconclusive: 25.1 µM [activator, partial curve] | – |
| Cc1nn(C)c(C)c1NC(=O)CSc1nc(C2CC2)nc2c1cnn2-c1ccccc1 | – | inconclusive: 32.7% [activator] |
| Cc1ccc(-c2csc(NC(=O)c3cccc(N4C(=O)CCC4=O)c3)n2)o1 | inactive | – |
| OCCCNc1nnc(-c2ccccc2)c2ccccc12 | inconclusive: 112 µM [inhibitor, single point] | – |
| CCN(CCCNC(=O)Cn1cc2c(n1)CCCC2)c1cccc(C)c1 | inconclusive: 79.4 µM [inhibitor, single point] | – |
| Cc1ccc(-c2nc3s/c(=C\c4ccco4)c(=O)n3n2)cc1 | inactive | – |
| COCc1cc(CN2CCN(CCc3ccccc3)C(CCO)C2)ccc1OC (configuration not stated) | inconclusive: 100 µM [inhibitor, single point] | – |
| CCC(C(=O)NCCc1ccc(C)cc1)n1nc(C)c2c(C)n(-c3ccccc3)nc2c1=O (configuration not stated) | inconclusive: 25.1 µM [inhibitor, single point] | – |
| CC(C)c1ccc(NC(=O)COC(=O)c2ccc(CN3CCCC3=O)cc2)cc1 | inconclusive: 17800 µM [inhibitor, partial curve, poor fit] | – |
| Cc1ccc(C(=O)N2CC(=O)Nc3ccc(F)cc3C2c2ccccc2)cc1 (configuration not stated) | inconclusive: 200 µM [inhibitor, partial curve, poor fit] | – |
| ClC(Cl)(c1nnnn1-c1ccccc1)c1nnnn1-c1ccccc1 | inactive | – |
| CC1Cc2ccccc2N1CC(=O)Nc1ccc(Cl)c(S(=O)(=O)N(C)C)c1 (configuration not stated) | inconclusive: 70.8 µM [inhibitor, partial curve, poor fit] | – |
| Cc1ccc(NC(=S)Nc2cccc(-c3n[nH]c(=S)o3)c2)cc1 | inactive | – |
| COC(=O)c1sc(C(C)(C)C)cc1CS(=O)(=O)c1ccc(Cl)cc1 | inconclusive: 20 µM [inhibitor, single point] | – |
| CCN(CC)C(=O)c1[nH]cnc1C(=O)Nc1ccccc1 | inactive | – |
| CCOC(=O)C(=Cc1ccc(-n2ccnc2)cc1)C(=O)OCC | inactive | – |
| Oc1ccc(-c2nc3ncccn3c2Nc2ccc3c(c2)OCO3)cc1 | inactive | – |
| O=C(CN1CCN(S(=O)(=O)c2ccccc2)CC1)Nc1ccc2c(c1)OCO2 | inactive | – |
| O=C(/C=C/c1ccc(O)c(O)c1)c1ccc(S(=O)(=O)N2CCCCCC2)cc1 | inactive | – |

Four consecutive entries out of the list so far, quoted:

| Compound | Potency | activity, negative = inhibition |
| --- | --- | --- |
| Cc1ccc(-c2csc(NC(=O)c3cccc(N4C(=O)CCC4=O)c3)n2)o1 | inactive | – |
| OCCCNc1nnc(-c2ccccc2)c2ccccc12 | inconclusive: 112 µM [inhibitor, single point] | – |
| CCN(CCCNC(=O)Cn1cc2c(n1)CCCC2)c1cccc(C)c1 | inconclusive: 79.4 µM [inhibitor, single point] | – |
| Cc1ccc(-c2nc3s/c(=C\c4ccco4)c(=O)n3n2)cc1 | inactive | – |

Remaining list, next part

| Compound | Potency | activity, negative = inhibition |
| --- | --- | --- |
| N#Cc1ccccc1S(=O)(=O)N1CCN(C(=O)CCC2CCCC2)CC1 | inconclusive: 1410 µM [inhibitor, single point] | – |
| CCC(C(=O)N1CCOCC1)n1nc(C)c2sc3ccccc3c2c1=O (configuration not stated) | inconclusive: 22.4 µM [inhibitor, single point] | – |
| CCc1ccccc1N(CC(=O)NCc1ccc(OC)cc1)C(=O)CCC(=O)Nc1ccccn1 | inconclusive: 17.8 µM [inhibitor, single point] | – |
| COc1ccccc1CNC(=O)CSc1ccc(-c2cccs2)nn1 | inactive | – |
| O=C(Nc1ccccc1)C1=C[C@@H](C2CCCCC2)C[C@@H](OCCCCO)O1 | inconclusive: 22.4 µM [inhibitor, single point] | – |
| O=S(=O)(c1ccccc1)c1ncc(C(F)(F)F)cc1O | inconclusive: 100 µM [inhibitor, single point] | – |
| Cc1cccc(S(=O)(=O)Nc2nc3ccccc3nc2OC(C)C)c1 | inconclusive: 100 µM [inhibitor, single point] | – |
| CSc1ncccc1C(=O)OCC(=O)c1ccc2c(c1)NC(=O)CO2 | inconclusive: 100 µM [inhibitor, single point] | – |
| COc1ccccc1N1C(=O)c2cccc3c(N(C)CCO)ccc(c23)C1=O | – | inconclusive: 45.4% [activator] |
| Nc1c(C(=O)N2CCOCC2)sc2nc(N3CCOCC3)c3c(c12)CCCC3 | inconclusive: 15.8 µM [inhibitor, single point] | – |
| O=C(COc1ccc2c(-c3ccccc3)cc(=O)oc2c1)Nc1cccnc1 | inactive | – |
| O=C(CS(=O)c1ccc(Br)cc1)N1CCOCC1 (configuration not stated) | inconclusive: 100 µM [inhibitor, single point] | – |
| COc1ccc(S(=O)(=O)Cc2ccc(C(=O)NCC(OC)OC)o2)cc1 | inconclusive: 316 µM [inhibitor, single point] | – |
| Cc1cc(C(F)(F)F)nc2c(Cl)c(C(C)(C)C)nn12 | inconclusive: 79.4 µM [inhibitor, single point] | – |
| CCOc1ccccc1CN1CCC(N2CCOCC2)CC1 | inconclusive: 112 µM [inhibitor, single point] | – |
| O=[N+]([O-])c1ccccc1NCc1c(O)ccc2ccccc12 | inconclusive: 89.1 µM [inhibitor, single point] | – |
| C1=C(c2ccc(-c3ccccc3)cc2)Nc2ncnn2C1c1ccco1 (configuration not stated) | inconclusive: 31.6 µM [activator, partial curve] | – |
| O=C(N/N=C/c1ccc([N+](=O)[O-])cc1)c1cccc2cc[nH]c12 | inconclusive: 79.4 µM [inhibitor, partial curve, poor fit] | – |
| Cc1c(N)cccc1-n1cnnn1 | inactive | – |
| O=C(NCc1ccc(F)cc1)c1cc2ccccc2o1 | inconclusive: 112 µM [inhibitor, single point] | – |
| CCO[C@@H]1OC(C(N)=O)=C[C@H](c2ccccc2)[C@H]1CCCO | inconclusive: 14.1 µM [inhibitor, single point] | – |
| O=C(NC(=S)Nn1cnnc1)c1ccccc1Cl | inactive | – |
| O=C(O)CC/C(=N\Nc1ccc(Cl)cc1)c1cccs1 | inconclusive: 22.4 µM [inhibitor, single point] | – |
| Cc1c(Cl)cccc1NC(=S)Nc1ccc2[nH]c(=O)[nH]c2c1 | inconclusive: 100 µM [inhibitor, single point] | – |

| Compound | Potency | activity, negative = inhibition |
| --- | --- | --- |
| COc1ccc(C2CC(c3cccs3)=NN2c2ccc(C=O)cc2)cc1 (configuration not stated) | – | inconclusive: 47% [activator] |
| CCOC(=O)C(C(=O)N(C)C)c1ncc(C(F)(F)F)cc1Cl (configuration not stated) | inactive | – |
| Oc1ccc2ccccc2c1CN1CCN(c2ccccc2F)CC1 | inactive | – |
| CCN1CCC(Nc2ccnc3cc(Cl)ccc23)CC1 | inconclusive: 89.1 µM [inhibitor, single point] | – |
| CN(C(=O)Cn1c(Cl)nc2c1c(=O)n(C)c(=O)n2C)C1CCS(=O)(=O)C1 (configuration not stated) | inactive | – |
| O=C1CN(CC(=O)N2CCCCC2)c2ccccc2O1 | inactive | – |
| COc1ccc(C(=O)O)cc1S(=O)(=O)NC(C)(C)C | inactive | – |
| CC(=O)Nc1ccc(S(=O)(=O)N2CCN=C2SCc2cccnc2)cc1 | inconclusive: 25.1 µM [inhibitor, partial curve] | – |
| COc1ccc(/C=C2\Sc3ccc(C(=O)NCCCN4CCCC4)cc3N(C)C2=O)cc1OC | inconclusive: 39.8 µM [inhibitor, partial curve] | – |
| CC(C)(C)c1cc[n+](-c2[nH]c(=O)sc2/C=N/NC([S-])=Nc2ccccc2)cc1 | – | inconclusive: 61.4% [activator] |
| COc1ccccc1NC(=O)C1CCN(C(=O)c2ccc(C(C)(C)C)cc2)CC1 | inconclusive: 28.2 µM [inhibitor, partial curve, poor fit] | – |
| CCOC(=O)c1c(C)n(C)c2ccc(OC)c([N+](=O)[O-])c12 | inconclusive: 100 µM [inhibitor, single point] | – |
| O=C(Nc1cccc(S(=O)(=O)NC2=NCCC2)c1)c1cc(=O)[nH]c2ccccc12 | inactive | – |
| O=C1/C(=C/c2ccccc2)Nc2ccccc21 | inconclusive: 50.1 µM [activator, partial curve] | – |
| O=C(CSc1c(F)c(F)cc(F)c1F)Nc1ccc(C2SCCS2)cc1 | inconclusive: 100 µM [inhibitor, single point] | – |
| CC(C)N=C1NN=C(c2cccs2)CS1 | inconclusive: 22.4 µM [inhibitor, single point] | – |
| CCOC(=O)C1(Cc2ccccc2)CCN(Cc2cc(=O)c3ccccc3[nH]2)CC1 | inconclusive: 31.6 µM [inhibitor, partial curve] | – |
| CCS(=O)(=O)N1Cc2ccccc2CC1C(=O)Nc1ccc(OC)cc1OC (configuration not stated) | inconclusive: 100 µM [inhibitor, single point] | – |
| CCCC(=O)Nc1c(-c2ccc(OC)cc2)c(=O)c2ccccc2n1C | inactive | – |
| Cn1nc(C(F)(F)F)c2cc(C(=O)Nc3ccc(F)c(Cl)c3)sc21 | inconclusive: 44.7 µM [inhibitor, partial curve, poor fit] | – |
| COC(=O)c1ccc(CSc2ccc3nnc(-c4cccnc4)n3n2)o1 | inactive | – |
| CN(C)c1ccc(C(c2ccc(N(C)C)cc2)c2ccc([N+](=O)[O-])cc2)cc1 | inactive | – |
| COc1ccc(-c2cc(NCc3ccccn3)n3ncnc3n2)cc1 | inactive | – |
| COC(=O)C1=C(C)N(Cc2ccccc2)C(=NCc2ccccc2)N[C@H]1c1cccc(F)c1 | inconclusive: 20 µM [inhibitor, single point] | – |
